Consider three molecules from patent US10017580B2, “Humanized anti-Tn-MUC1 antibodies and their conjugates” (ADC THERAPEUTICS S.A., priority 2014, dated 2018).

The nature of data set [1]: Static HEK293T transient transfection, IgG quantitation by ELISA (protocols 2 and 3). Particulars: for Static HEK293T transient IgG: expression level in conditioned medium; for Expression level of the construct (in words): protocols 2 and 3. For orientation: An ELISA detects its analyte on a solid surface through an enzyme-linked reagent.
The nature of data set [2]: Shaken HEK293F transient transfection culture (protocol 7), IgG quantitation. Particulars: expression level in shake culture medium.

B1: Ab4: anti-Tn MUC 1 antibody comprising a VH domain according to SEQ ID NO. 9 and a VL domain according to SEQ ID NO. 33 (antibody, V domains shown)
VH: QVQLVQSGAEVKKTGSSVKVSCKASGYTFTDHAIHWVRQAPGQALEWMGHFSPGNTDIKYNDKFKGRVTLTVDRSMSTAYMELSSLRSEDTAMYYCKTSTFFFDYWGQGTMVTVSS
VL: DIVMTQSPLSLPVTPGEPASISCKSSQSLLNSGDQKNYLTWYLQKPGQSPQLLIYWASTRESGVPDRFSGSGSGTDFTLKISRVEAEDVGVYYCQNDYSYPLTFGGGTKVEIK
modifications: Synthetic sequence: Humanized antibody heavy chain variable region 5E5RHA8; Synthetic sequence: Humanized antibody light chain variable region 5E5RKB
Regarding B1, in data set [1], the “Static HEK293T transient IgG” value is 10.9 µg/mL and the “Expression level of the construct (in words)” value was “expressed well”. For the same molecule, the “Shaken HEK293F transient IgG” value in data set [2] is 18.9 µg/mL.

B2: Ab6: anti-Tn MUC 1 antibody comprising a VH domain according to SEQ ID NO. 28 and a VL domain according to SEQ ID NO. 33 (antibody, V domains shown)
VH: EVQLVESGAEVKKPGASVEVSCQASGYTFTDHAIHWVRQAPGQGLEWMGHFSPGNTDIKYNDKFKGRVTMTVDRSINTAYMELRRLRSDDTAVYYCKTSTFFFDYWGQGTMVTVSS
VL: DIVMTQSPLSLPVTPGEPASISCKSSQSLLNSGDQKNYLTWYLQKPGQSPQLLIYWASTRESGVPDRFSGSGSGTDFTLKISRVEAEDVGVYYCQNDYSYPLTFGGGTKVEIK
modifications: Synthetic sequence: Humanized antibody heavy chain variable region 5E5RHC9; Synthetic sequence: Humanized antibody light chain variable region 5E5RKB
As for B2, in data set [1], the “Static HEK293T transient IgG” value came out at 0.18 µg/mL and the “Expression level of the construct (in words)” value is “low”. Moreover, in data set [2], the “Shaken HEK293F transient IgG” value turned out to be 1.0 µg/mL.

B3: Ab5: anti-Tn MUC 1 antibody comprising a VH domain according to SEQ ID NO. 19 and a VL domain according to SEQ ID NO. 33 (antibody, V domains shown)
VH: EVQLVQSGAEVKKPGESLKISCKISGYIFTDHAIHWVRQMPGKGLEWMGHFSPGNTDIKYNDKFKGQVTLSVDRSINTAYLQWSSLKASDTAIYFCKTSTFFFDYWGQGTRVTVSS
VL: DIVMTQSPLSLPVTPGEPASISCKSSQSLLNSGDQKNYLTWYLQKPGQSPQLLIYWASTRESGVPDRFSGSGSGTDFTLKISRVEAEDVGVYYCQNDYSYPLTFGGGTKVEIK
modifications: Synthetic sequence: Humanized antibody heavy chain variable region 5E5RHB10; Synthetic sequence: Humanized antibody light chain variable region 5E5RKB
As to B3, in data set [1], the “Static HEK293T transient IgG” value was found to be 3.3 µg/mL. Further, the “Shaken HEK293F transient IgG” value in data set [2] was 17.2 µg/mL.
